These are yes or no findings as the source states them, for the method shown. In cells and extracts the contact can be indirect. A yes stands for co-enrichment or nearness to the bait. Other partners may have been found.
Biological target: Paired Box 6 (PAX6) (rat (endogenous in cultured NSCs)) (UniProt P63016)
Experiment: affinity purification with mass spectrometry; immunoprecipitate of PAX6 from NSCs, gel pieces digested with trypsin, LC-MS/MS, Mascot search of a rat protein database

Sequences of proteins named here, by UniProt entry; tags and fusion partners are left off.
UniProt P63016: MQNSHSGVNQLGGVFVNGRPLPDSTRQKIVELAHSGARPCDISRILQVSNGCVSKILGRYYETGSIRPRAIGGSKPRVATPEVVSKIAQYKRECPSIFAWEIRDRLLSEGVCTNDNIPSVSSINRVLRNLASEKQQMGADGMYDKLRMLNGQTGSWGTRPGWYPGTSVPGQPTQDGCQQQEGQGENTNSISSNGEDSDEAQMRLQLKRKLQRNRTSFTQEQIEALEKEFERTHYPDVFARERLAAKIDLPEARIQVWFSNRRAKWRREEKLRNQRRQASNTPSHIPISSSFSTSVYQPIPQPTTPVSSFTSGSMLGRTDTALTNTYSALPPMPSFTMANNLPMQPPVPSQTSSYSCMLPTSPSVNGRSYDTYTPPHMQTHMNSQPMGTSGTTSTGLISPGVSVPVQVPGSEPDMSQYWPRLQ

B1: ring finger protein 8 (RNF8) (enzyme, UniProt Q4KLN8 1-487)
chain: MGEPDPLVSGQLAARRSWCLRRLGMDREWLQLEAGSEVTIGRGFSVTYQLISKVCPLMISRNHCVLKQNPEGQWTIMDNKSLNGVWLNRERLAPLQGYCIRKGDHIQLGVPLESKEHAEYEYEVIEEDRESLAPCLAPKNDHTTEKHKGLRTKRKFSSDGVESLPAEGPSDLRCPLAKGSSKPAEPEKLHGKGEAASQPLGCLCPTLASLEASERTAGPHACSTLPKVLELYPKKQKACSPSASQSSLELFKMTMSRMLKLKTQMQEKQIAVLNVKRQARKGSSKKVVRMEKELRDLQSQLYAEQAQQQARVEQLEKTFQEEEQHLQGLEKEQGECDLKQQLLQALQEHRALMEELDRSKKDFEKIIQAKNKELERTKEEKDKVQAQKEEVLSHMNDVLENELQCIICSEYFIEAVTLNCAHSFCSFCISEWMKRKVECPICRKDIESRTNSLVLDNCISKMVERLSSDVKERRSVLIRERRAKRLL
Q: Which binding does the source give for B1 here?
A: Its binding is “binds”.

Source: article PMC10011063
